In PubChem BioAssay AID1671190 (National Center for Advancing Translational Sciences (NCATS), 2021) one finds activity change, negative = inhibition and Potency data, which are given here for 24 compounds.

Protein sequences, listed by entry. Tags and fused reporters are not part of them. Lines headed by an entry give the natural chain unless they say otherwise; changes in a name come on top.
UniProt P18054: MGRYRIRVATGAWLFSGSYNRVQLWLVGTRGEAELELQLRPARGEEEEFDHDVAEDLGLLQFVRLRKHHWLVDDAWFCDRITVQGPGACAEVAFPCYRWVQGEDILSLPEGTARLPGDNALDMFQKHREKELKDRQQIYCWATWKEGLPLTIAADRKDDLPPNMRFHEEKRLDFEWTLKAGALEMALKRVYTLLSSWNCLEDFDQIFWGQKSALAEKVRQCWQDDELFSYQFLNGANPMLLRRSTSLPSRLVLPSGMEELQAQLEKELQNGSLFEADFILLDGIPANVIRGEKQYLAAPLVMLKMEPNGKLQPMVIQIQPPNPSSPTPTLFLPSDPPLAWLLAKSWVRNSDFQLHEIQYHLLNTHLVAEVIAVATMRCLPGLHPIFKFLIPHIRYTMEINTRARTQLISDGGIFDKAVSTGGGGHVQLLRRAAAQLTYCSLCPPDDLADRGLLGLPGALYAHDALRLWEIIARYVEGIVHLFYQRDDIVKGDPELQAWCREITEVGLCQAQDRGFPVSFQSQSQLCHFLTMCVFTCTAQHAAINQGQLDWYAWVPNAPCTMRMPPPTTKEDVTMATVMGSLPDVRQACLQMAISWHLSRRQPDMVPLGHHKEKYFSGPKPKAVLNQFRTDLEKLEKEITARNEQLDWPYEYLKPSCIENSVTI

The whole screen tested about 580,000 compounds, of which about 6,100 (1.1%) were called active. Another 15% or so got no clear call; they are omitted. Calls come from the whole dose curve; as a rule, active = well fitted inhibition curve with a large enough effect; inconclusive = small, poorly fitted or top-dose-only effect, or another doubt; inactive = no such curve, though single readings can be large or run the other way. The entries are a selection whose mix differs from that of the whole data set. Where no call is shown, the source filed none.
% is set by controls: 0 for no effect and ±100 for the full control effect; potency is the fitted concentration of half-maximal effect.

The assay has as its target Polyunsaturated fatty acid lipoxygenase ALOX12 (Homo sapiens) (UniProt P18054). Kind of assay: Primary qHTS assay for inhibitors of human arachidonate 12S-lipoxygenase (ALOX12): Round 2. The following applies: purified 12hLO, xylenol orange hydroperoxide absorbance; activity change, negative = inhibition: at 0.00344 µM. Put shortly: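 Hydroperoxide product was detected by ferrous iron/xylenol orange as the 573 to 405 nm absorbance ratio. Arachidonic acid at 40 uM (final) was turned over for 30 min at room temperature by 150 nM human 12hLO, pH 7.0 Hepes buffer, after 15 min compound preincubation.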
(In general: qHTS replaces the single test concentration by a dilution series.)
Turning to `COc1ccc([C@@H]2Sc3ccccc3N(CCN(C)C)C(=O)[C@@H]2OC(C)=O)cc1`, the activity change, negative = inhibition was -25.8%.

For the compound `COc1cccc(C2C(C(C)=O)=C(O)C(=O)N2CCc2c[nH]c3ccccc23)c1` (centres undefined), the Potency was active: 5.01 µM.

Regarding `COc1cc(NS(=O)(=O)c2ccc(N)cc2)nc(OC)n1`, the activity change, negative = inhibition was -21.8%.

With `Cc1cccc(Nc2ccncc2S(=O)(=O)NC(=O)NC(C)C)c1`, the activity change, negative = inhibition came to 5.89%.

Regarding `O=C(O)CCC(=O)O`, the activity change, negative = inhibition amounted to 7.79%.

Consider `CCc1nc2ccccc2n1CCCCOc1cccc(C)c1`, for which the Potency is active: 39.8 µM.

For `COc1ccc2nc(S(=O)Cc3ncc(C)c(OC)c3C)[nH]c2c1` (centres undefined), the activity change, negative = inhibition is -53.3%.

On to `CN(C)CC[C@@H](c1ccc(Br)cc1)c1ccccn1`, for which the activity change, negative = inhibition is -0.857%.

In the case of `CCOC(=O)C1=C(N)Oc2ccc(Br)cc2[C@@H]1[C@@H](C#N)C(=O)OCC`, the Potency is active: 10 µM.

On to `Cc1nnc(SCC2=C(C(=O)O)N3C(=O)[C@@H](NC(=O)Cn4cnnn4)[C@H]3SC2)s1`, for which the activity change, negative = inhibition is -25.7%.

In the case of `O=c1[nH]c(=O)n([C@H]2C[C@H](O)[C@@H](CO)O2)cc1C(F)(F)F`, the activity change, negative = inhibition was -10.7%.

With `O=c1[nH]c2ccccc2c(=O)n1CCCl`, the activity change, negative = inhibition is 5.12%.

For `C[C@H](N)C(=O)N[C@@H](C)C(=O)NC1[C@H]2CN(c3nc4c(cc3F)c(=O)c(C(=O)O)cn4-c3ccc(F)cc3F)C[C@@H]12` (some centres undefined), the activity change, negative = inhibition is -15.3%.

In the case of `CC(C)[C@@H]1CC[C@@H](C)CC1=O`, the activity change, negative = inhibition was -4.7%.

For `CC(=O)c1cc2ccccc2s1`, the activity change, negative = inhibition was -24%.

Turning to `CCCSC1=N/C(=C\c2ccc([N+](=O)[O-])o2)C(=O)S1`, the Potency was active: 39.8 µM.

In the case of `O=C(O)/C=C(\CC(=O)O)C(=O)O`, the activity change, negative = inhibition is -11.9%.

`CC(C)CCNC(=O)COC(=O)c1cc(-c2ccco2)nc2ccccc12`: the Potency is active: 6.31 µM.

For the compound `CCCC(CCC)(C(=O)OCC)C(=O)OCC`, the activity change, negative = inhibition was -31.7%.

`CCOCCOC(=O)/C=C/c1ccc(OC)cc1`: the activity change, negative = inhibition amounted to 5.94%.

Regarding `CC/C=C(\C(=O)N[C@@H]1C(=O)N2C(C(=O)OCOC(=O)C(C)(C)C)=C(COC(N)=O)CS[C@H]12)c1csc(N)n1`, the activity change, negative = inhibition was 16.7%.

`C[C@H]1C[C@H](O)c2ccsc2S1(=O)=O`: the activity change, negative = inhibition was found to be 13%.

In the case of `O=C1NC2(CCN(Cc3ccsc3)CC2)COc2ccccc21`, the Potency was active: 44.7 µM.

On to `Cc1ccc(C(C)C)c(O)c1`, for which the activity change, negative = inhibition was -13.8%.
